Laboratory results: patent publication US20110178027A1
Results are given in words; binding and its absence hold for the method and conditions named. Some entries that bind do so weakly or less than the wild type.

By UniProt entry, the sequences of proteins in these tests, tags left out. Residues count along the entry.
UniProt P09958, residues 108-715: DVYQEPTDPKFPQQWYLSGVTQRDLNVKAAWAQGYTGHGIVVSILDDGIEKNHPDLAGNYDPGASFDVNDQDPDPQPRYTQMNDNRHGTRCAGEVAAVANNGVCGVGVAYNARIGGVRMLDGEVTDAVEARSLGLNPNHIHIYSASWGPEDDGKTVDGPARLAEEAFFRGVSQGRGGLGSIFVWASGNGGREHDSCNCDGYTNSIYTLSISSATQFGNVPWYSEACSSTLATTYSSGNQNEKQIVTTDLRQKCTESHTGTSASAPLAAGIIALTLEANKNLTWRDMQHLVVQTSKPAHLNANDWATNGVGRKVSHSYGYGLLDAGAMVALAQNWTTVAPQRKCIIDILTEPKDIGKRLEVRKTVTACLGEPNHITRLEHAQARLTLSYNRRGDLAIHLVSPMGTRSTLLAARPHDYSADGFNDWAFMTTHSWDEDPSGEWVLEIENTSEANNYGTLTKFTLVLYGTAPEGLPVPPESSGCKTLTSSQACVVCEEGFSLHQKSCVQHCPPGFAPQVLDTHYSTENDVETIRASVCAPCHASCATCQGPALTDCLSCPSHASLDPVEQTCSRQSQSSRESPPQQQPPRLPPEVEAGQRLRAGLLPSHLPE

What was measured:
Experiment in all cases: enzyme inhibition assay, fluorogenic substrate PyrRTKR-MCA
[1] = biological target: T1, PC5/6 (UniProt Q92824)
T1 sequence (looked up): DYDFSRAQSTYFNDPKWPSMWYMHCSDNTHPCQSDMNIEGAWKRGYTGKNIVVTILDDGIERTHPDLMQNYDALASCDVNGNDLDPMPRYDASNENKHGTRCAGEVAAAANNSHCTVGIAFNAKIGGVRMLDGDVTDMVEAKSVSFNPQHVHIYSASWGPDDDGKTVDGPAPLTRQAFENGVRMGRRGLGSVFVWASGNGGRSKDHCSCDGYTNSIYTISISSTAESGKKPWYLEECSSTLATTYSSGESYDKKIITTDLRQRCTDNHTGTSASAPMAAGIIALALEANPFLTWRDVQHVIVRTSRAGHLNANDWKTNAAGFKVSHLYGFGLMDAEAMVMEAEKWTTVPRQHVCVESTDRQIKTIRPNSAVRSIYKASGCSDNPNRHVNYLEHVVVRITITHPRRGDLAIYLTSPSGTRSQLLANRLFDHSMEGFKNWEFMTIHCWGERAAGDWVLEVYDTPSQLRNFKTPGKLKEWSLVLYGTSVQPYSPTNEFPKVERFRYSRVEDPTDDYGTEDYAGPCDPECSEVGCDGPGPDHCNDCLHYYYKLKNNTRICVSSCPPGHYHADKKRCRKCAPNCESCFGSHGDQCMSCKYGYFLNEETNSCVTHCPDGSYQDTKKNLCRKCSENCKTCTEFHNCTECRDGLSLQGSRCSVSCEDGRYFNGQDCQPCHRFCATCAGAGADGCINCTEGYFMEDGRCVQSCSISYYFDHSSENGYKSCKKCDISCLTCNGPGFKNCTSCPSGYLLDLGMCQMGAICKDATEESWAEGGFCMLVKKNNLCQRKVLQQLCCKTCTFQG

[2] = biological target: T2, PACE4 (UniProt P29122)
T2 sequence (looked up): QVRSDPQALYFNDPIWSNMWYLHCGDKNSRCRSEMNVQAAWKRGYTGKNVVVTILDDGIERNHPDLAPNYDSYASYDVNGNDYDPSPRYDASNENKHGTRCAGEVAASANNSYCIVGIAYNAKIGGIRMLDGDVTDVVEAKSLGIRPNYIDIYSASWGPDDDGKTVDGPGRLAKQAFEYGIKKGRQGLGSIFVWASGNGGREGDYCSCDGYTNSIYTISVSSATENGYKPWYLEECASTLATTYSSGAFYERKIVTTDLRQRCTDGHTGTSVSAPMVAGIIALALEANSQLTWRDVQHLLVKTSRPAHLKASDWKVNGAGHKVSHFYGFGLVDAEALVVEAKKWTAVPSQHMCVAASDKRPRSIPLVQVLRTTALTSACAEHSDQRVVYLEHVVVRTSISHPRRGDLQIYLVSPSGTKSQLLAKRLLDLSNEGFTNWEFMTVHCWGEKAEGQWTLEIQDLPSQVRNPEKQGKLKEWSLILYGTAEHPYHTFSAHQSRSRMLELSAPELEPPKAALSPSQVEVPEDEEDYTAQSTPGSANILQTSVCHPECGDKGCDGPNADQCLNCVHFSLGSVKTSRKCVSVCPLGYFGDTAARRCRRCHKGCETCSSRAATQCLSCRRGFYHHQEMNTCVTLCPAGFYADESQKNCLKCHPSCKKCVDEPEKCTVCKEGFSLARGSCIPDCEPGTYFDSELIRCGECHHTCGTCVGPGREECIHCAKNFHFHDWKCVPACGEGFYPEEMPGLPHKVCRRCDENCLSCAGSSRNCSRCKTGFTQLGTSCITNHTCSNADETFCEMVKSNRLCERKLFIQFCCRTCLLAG

[3] = biological target: T3, PC1/3 (UniProt P29120)
T3 sequence (looked up): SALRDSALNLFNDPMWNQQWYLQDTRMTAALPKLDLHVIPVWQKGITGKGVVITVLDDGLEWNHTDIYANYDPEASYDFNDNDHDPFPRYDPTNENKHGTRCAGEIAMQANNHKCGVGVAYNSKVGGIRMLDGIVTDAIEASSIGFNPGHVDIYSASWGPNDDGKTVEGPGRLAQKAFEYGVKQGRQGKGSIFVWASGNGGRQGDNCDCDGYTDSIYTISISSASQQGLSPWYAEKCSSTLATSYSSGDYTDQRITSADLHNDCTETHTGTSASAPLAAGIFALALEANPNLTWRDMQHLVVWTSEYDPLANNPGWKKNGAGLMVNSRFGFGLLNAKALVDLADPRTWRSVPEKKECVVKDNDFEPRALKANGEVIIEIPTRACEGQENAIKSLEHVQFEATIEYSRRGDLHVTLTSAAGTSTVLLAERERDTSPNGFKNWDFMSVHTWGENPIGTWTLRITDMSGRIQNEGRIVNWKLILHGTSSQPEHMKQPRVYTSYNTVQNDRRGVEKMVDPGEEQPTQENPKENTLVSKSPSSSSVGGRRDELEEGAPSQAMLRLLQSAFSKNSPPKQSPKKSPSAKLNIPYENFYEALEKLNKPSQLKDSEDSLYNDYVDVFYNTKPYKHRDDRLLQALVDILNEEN

[4] = biological target: T4, PC7 (UniProt Q16549)
T4 sequence (looked up): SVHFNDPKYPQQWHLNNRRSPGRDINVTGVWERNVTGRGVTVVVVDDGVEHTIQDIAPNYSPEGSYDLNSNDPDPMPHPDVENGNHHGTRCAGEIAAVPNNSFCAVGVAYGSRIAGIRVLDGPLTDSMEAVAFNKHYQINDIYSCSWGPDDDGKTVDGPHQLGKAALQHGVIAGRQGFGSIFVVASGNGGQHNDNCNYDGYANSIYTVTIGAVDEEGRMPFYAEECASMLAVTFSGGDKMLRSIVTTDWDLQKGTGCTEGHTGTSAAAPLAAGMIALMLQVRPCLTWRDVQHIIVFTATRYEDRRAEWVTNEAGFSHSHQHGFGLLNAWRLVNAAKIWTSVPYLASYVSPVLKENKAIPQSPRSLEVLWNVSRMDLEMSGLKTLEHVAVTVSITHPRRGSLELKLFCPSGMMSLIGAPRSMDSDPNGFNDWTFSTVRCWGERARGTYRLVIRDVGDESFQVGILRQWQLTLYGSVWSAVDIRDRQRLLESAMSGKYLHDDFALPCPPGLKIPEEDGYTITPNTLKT

[5] = biological target: T5, PC2 (UniProt P16519)
T5 sequence (looked up): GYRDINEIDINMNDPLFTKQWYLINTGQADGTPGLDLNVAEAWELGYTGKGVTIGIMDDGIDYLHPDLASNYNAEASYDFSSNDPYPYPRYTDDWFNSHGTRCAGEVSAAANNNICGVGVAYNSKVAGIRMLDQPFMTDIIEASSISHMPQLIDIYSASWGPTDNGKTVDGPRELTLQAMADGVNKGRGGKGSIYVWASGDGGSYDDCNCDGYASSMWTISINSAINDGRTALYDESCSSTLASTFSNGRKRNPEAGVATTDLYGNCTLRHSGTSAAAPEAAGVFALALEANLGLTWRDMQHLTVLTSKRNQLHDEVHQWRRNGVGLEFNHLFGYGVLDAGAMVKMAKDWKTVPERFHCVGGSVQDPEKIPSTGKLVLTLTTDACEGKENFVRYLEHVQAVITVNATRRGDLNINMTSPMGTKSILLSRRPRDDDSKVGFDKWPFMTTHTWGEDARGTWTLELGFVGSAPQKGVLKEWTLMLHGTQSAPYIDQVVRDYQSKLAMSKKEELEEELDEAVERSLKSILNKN

[6] = biological target: furin (UniProt P09958)

Measured: binding

LLLLLLRVKR (C-terminal amide) […-NH2]
binds: all assays above

LLLLRVKR (C-terminal amide) [LLLLRVKR-NH2]
binds: all assays above
